According to US20080038735A1:
These are yes or no findings as the source states them, for the method shown. Some entries that bind do so weakly or less than the wild type.

The chains behind the UniProt entries cited, without tags or fusion partners. Residues count along the entry.
UniProt P01375, residues 77-233: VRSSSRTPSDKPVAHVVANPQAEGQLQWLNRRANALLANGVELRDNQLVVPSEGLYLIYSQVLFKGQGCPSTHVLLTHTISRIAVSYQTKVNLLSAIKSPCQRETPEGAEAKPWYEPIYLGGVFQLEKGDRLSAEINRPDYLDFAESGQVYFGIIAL

Tests used:
TNFa [1] = target: TNFa (UniProt P01375); test: ELISA with biotinylated TNFa (FIG. 5), free dAb
TNFa [2] = target: TNFa (UniProt P01375); test: ELISA: in vitro translated dAb captured on the plate, incubated with a concentration range of biotinylated TNFa, detected with streptavidin-HRP

B1: Vk(TAR1-5-19) (protein)
VL: MASTDIQMTQSPSSLSASVGDRVTITCRASQSIDSYLHWYQQKPGKAPKLLIYSASELQSGVPSRFSGSGSGTDFTLTISSLQPEDFATYYCQQVVWRPFTFGQGTKVEIKRAA
For B1, the binding (TNFa [1]) was “binds” and the binding (TNFa [2]) was “binds”.
